Data published in patent US20110251247A1, “SUBSTITUTED ISOXAZOLINE DERIVATIVES” (PFIZER INC., priority 2010, published 2011).
Some entries share one result that the patent states for a list of compounds.

Assays:
[1] = test system: Soft Tick (Ornithidorus turicata); experiment: Soft Tick (Ornithidorus turicata) Blood Feed Assay; assay type: in vivo; settings: nymph stage ticks fed on treated citrated bovine blood; paralysis and/or death observed at approximately 24, 48 and 72 hours
[2] = test system: Hard Tick Larvae (Rhipicephalus sanquineus); experiment: Hard Tick Larvae (Rhipicephalus sanquineus) Whole Organism Contact Assay; assay type: in vivo; settings: tick larvae in coated vials; knockdown examined at approximately 24 and 48 hours
Method: Hard Tick Larvae (Rhipicephalus sanquineus) Whole Organism Contact Assay
Formula (1) compounds were dissolved in isopropyl alcohol (IPA) and aliquots were added to vials placed on a roller for at least 2 hours to allow the IPA to evaporate. IPA alone was used as a negative control and fipronil was used as a positive control. Approximately 50-200 tick larvae were added to the vials using a swab and the vials were closed. At approximately 24 and 48 hours, the vials were examined and knockdown was recorded as active. Vials showing knockdown were examined for tick paralysis and/or death at approximately 48 hrs. Endpoint data can be recorded as an effective dose 100% (ED^100) and/or a lethal dose 100% (LD^100) in μg/cm^2.

SMILES | ED^100 [1] [μg/cm^2] | ED^100 (effective dose 100%) [2] [μg/cm^2]
CC(=O)NCc1cc(C2=NOC(c3cc(Cl)c(Cl)c(Cl)c3)(C(F)(F)F)C2)ccc1F (centres unmarked) [Example 3, N-{5-[5-(3,4,5-trichlorophenyl)-5-(trifluoromethyl)-4,5-dihydroisoxazol-3-yl]-2-fluorobenzyl}acetamide] | ≤ 1 | ≤ 1.0
CC(C)C(=O)NCc1cc(C2=NOC(c3cc(Cl)c(Cl)c(Cl)c3)(C(F)(F)F)C2)ccc1F (centres unmarked) [Example 4, N-{2-fluoro-5-[5-(3,4,5-trichlorophenyl)-5-(trifluoromethyl)-4,5-dihydroisoxazol-3-yl]benzyl}-2-methylpropanamide] | – | ≤ 1.0
O=C(CC1CC1)NCc1cc(C2=NOC(c3cc(Cl)c(Cl)c(Cl)c3)(C(F)(F)F)C2)ccc1F (centres unmarked) [Example 8, 2-cyclopropyl-N-{2-fluoro-5-[5-(3,4,5-trichlorophenyl)-5-(trifluoromethyl)-4,5-dihydroisoxazol-3-yl]benzyl}acetamide] | – | ≤ 1.0
CC(C)CC(=O)NCc1cc(C2=NOC(c3cc(Cl)c(Cl)c(Cl)c3)(C(F)(F)F)C2)ccc1F (centres unmarked) [Example 9, N-{2-fluoro-5-[5-(3,4,5-trichlorophenyl)-5-(trifluoromethyl)-4,5-dihydroisoxazol-3-yl]benzyl}-3-methylbutanamide] | – | ≤ 1.0
CC(=O)NCc1cc(C2=NOC(c3cc(Cl)c(F)c(Cl)c3)(C(F)(F)F)C2)ccc1F (centres unmarked) [Example 11, N-{5-[5-(3,5-dichloro-4-fluorophenyl)-5-(trifluoromethyl)-4,5-dihydroisoxazol-3-yl]-2-fluorobenzyl}acetamide] | ≤ 1 | –
CC(=O)NCc1cc(C2=NOC(c3cc(Cl)c(Cl)c(Cl)c3)(C(F)(F)F)C2)ccc1Cl (centres unmarked) [Example 14, N-{2-chloro-5-[5-(3,4,5-trichlorophenyl)-5-(trifluoromethyl)-4,5-dihydroisoxazol-3-yl]benzyl}acetamide] | – | ≤ 1.0
O=C(NCc1cc(C2=NOC(c3cc(Cl)c(Cl)c(Cl)c3)(C(F)(F)F)C2)ccc1Cl)C1CC1 (centres unmarked) [Example 15, N-{2-chloro-5-[5-(3,4,5-trichlorophenyl)-5-(trifluoromethyl)-4,5-dihydroisoxazol-3-yl]benzyl}cyclopropanecarboxamide] | – | ≤ 1.0
CC(C)C(=O)NCc1cc(C2=NOC(c3cc(Cl)c(Cl)c(Cl)c3)(C(F)(F)F)C2)ccc1Cl (centres unmarked) [Example 16, N-{2-chloro-5-[5-(3,4,5-trichlorophenyl)-5-(trifluoromethyl)-4,5-dihydroisoxazol-3-yl]benzyl}-2-methylpropanamide] | – | ≤ 1.0
CC(=O)NCc1cc(C2=NOC(c3cc(Cl)c(F)c(Cl)c3)(C(F)(F)F)C2)ccc1Cl (centres unmarked) [Example 17, N-{2-chloro-5-[5-(3,5-dichloro-4-fluorophenyl)-5-(trifluoromethyl)-4,5-dihydroisoxazol-3-yl]benzyl}acetamide] | – | ≤ 1.0
CC(=O)NCc1cc(C2=NOC(c3cc(Cl)c(Cl)c(Cl)c3)(C(F)(F)F)C2)ccc1Br (centres unmarked) [Example 18, N-(2-bromo-5-(5-(3,4,5-trichlorophenyl)-5-(trifluoromethyl)-4,5-dihydroisoxazol-3-yl)benzyl)acetamide] | – | ≤ 1.0
